Data reported in publication PMC7821181, “MS Binding Assays for Glycine Transporter 2 (GlyT2) Employing Org25543 as Reporter Ligand” (Chemmedchem, 2020).

Experiments:
GlyT2 = details: cited from earlier work
hGlyT2 = target: T1, hGlyT2 (Homo sapiens, UniProt Q9Y345); test: GlyT2 MS Binding Assays: competition experiments with Org25543 as reporter ligand; details: Org25543 10 nM, 37 °C, 1 h; mean±SEM, n=3–5; bounds in brackets where less than 50 % inhibition; read-out: Affinity, pKi (GlyT2 MS Binding Assays) (converted)
T1 construct: host or cells: HEK293 cells stably expressing hGlyT2; crude membrane fractions
T1 sequence (Q9Y345 1-797): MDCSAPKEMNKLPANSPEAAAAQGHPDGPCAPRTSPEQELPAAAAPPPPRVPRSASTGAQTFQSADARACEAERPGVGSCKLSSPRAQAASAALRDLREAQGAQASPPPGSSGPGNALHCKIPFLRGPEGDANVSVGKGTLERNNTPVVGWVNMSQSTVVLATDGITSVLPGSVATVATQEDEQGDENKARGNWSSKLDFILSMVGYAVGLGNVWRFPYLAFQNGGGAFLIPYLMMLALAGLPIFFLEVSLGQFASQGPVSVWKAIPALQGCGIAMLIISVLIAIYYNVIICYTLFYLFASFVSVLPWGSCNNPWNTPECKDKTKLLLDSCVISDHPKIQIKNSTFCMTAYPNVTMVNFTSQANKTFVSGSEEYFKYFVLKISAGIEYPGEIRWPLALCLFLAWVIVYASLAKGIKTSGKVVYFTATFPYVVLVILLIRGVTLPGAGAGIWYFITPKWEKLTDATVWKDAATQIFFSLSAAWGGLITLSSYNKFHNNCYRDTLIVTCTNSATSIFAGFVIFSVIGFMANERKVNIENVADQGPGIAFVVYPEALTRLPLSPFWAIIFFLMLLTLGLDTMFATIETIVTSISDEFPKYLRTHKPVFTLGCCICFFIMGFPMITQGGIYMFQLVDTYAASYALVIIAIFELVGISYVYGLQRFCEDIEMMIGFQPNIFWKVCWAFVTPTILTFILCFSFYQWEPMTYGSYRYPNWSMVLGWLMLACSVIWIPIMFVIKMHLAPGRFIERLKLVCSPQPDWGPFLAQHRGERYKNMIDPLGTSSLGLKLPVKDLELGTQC
From the text: As already mentioned above, there is a strong need for competitive binding assays addressing GlyT2 as a tool for the identification of new GlyT2 inhibitors as well as the characterization of the binding affinities of the respective ligands. For the development of the desired competitive MS Binding Assay, the general concept of this kind of binding experiments was followed, in which the affinity of a test compound is delineated from its potency to compete out a reporter ligand, in our case Org25543, from its target binding site. Accordingly, the target protein was incubated with a defined concentration of the reporter ligand and increasing concentration of the individual test compound. In detail, the competitors were studied at seven different concentration levels, which covered about three concentration log units, whereas the concentration of Org25543 was fixed to 10 nM. Thereafter, via the developed LC‐ESI‐MS/MS method the amount of bound marker (total binding) was determined for the samples obtained from the individual incubation mixtures by the common workup for MS Binding Assays. Nonspecific binding was again determined in a set of analogous experiments in which GlyT2 membrane fractions were replaced by material subjected to a heat‐shock before. […] The thus determined IC50 values were finally used to calculate the corresponding K i values by means of the Cheng‐Prusoff equation. […]

O=C(CCCN1CCC(O)(c2ccc(Cl)cc2)CC1)c1ccc(F)cc1 [haloperidol]
pIC50 (literature; calcd) (GlyT2; calcd from literature IC50): 4.89
IC50 (GlyT2; read-out: Biological activity, IC50 (literature)): 13 ± 2 µM
Ki (hGlyT2): 12.6 µM
